In paper doi:10.1101/2025.05.29.656244:
Results are given in words; binding and its absence hold for the method and conditions named. Binding seen in cells or lysates may run through a third protein. Some entries that bind do so weakly or less than the wild type.

Amino acid sequences for entries named in this document (tags omitted).
UniProt P10275: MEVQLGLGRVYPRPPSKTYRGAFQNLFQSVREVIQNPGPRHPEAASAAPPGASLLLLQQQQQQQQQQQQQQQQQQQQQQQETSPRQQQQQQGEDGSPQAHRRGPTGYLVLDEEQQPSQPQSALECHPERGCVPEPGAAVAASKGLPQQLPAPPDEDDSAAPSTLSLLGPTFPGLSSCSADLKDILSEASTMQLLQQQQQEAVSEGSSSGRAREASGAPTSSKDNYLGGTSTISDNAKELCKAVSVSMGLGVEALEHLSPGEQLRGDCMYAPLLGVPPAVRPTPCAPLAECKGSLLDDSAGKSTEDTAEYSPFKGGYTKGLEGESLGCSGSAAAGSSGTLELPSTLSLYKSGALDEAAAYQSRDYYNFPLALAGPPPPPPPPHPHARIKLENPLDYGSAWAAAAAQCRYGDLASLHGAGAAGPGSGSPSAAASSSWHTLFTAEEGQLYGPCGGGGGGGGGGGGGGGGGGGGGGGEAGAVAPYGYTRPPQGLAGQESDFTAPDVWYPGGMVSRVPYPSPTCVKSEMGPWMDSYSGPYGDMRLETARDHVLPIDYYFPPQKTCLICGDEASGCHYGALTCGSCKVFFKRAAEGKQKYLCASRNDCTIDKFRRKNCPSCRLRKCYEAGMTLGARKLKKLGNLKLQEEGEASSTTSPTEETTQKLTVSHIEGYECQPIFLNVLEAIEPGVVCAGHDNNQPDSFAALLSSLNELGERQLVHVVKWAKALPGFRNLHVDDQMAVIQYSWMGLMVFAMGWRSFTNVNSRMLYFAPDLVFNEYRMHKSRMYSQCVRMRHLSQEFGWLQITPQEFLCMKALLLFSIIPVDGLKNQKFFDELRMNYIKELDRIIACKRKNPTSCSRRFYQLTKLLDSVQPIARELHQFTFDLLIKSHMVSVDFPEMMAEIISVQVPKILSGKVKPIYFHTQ
UniProt Q92830: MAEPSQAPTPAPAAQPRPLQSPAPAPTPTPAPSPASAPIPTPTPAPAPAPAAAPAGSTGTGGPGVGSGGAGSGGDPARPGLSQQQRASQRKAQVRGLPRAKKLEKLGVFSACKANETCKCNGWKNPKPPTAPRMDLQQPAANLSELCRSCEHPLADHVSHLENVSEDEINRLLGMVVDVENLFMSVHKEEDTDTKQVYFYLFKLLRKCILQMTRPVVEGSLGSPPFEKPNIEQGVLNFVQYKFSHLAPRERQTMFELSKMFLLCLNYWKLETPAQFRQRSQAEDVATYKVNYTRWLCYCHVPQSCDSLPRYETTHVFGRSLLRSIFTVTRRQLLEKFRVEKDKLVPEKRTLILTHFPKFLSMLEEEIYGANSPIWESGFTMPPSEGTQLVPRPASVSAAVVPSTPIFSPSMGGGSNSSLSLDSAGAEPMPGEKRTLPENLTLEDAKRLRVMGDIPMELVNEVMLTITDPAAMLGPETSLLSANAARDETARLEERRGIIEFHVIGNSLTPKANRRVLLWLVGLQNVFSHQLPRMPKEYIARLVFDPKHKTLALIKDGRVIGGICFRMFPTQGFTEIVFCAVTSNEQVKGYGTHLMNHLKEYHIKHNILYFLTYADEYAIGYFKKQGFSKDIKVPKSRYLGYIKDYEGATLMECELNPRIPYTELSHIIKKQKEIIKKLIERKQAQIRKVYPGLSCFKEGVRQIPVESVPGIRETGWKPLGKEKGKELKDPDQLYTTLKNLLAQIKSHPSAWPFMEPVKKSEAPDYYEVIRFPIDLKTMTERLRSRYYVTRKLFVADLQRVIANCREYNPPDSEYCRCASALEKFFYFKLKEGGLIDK

Target: T1, PTGES3 (human (endogenous in LNCaP)) (UniProt Q15185)
T1 sequence: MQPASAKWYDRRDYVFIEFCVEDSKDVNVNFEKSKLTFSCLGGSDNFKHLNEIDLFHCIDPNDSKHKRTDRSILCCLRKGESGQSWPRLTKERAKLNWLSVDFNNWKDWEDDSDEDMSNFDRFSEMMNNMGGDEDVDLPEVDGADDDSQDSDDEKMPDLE
Assay: co-IP

Row | binding | Substance
1 | binds | androgen receptor (AR) (from UniProt P10275 1-920)
2 | binds | histone acetyltransferase KAT2A (from UniProt Q92830 1-837) (enzyme)
